From publication PMC7449927 come the findings set out here.

This test addresses T1, O-GlcNAc transferase (OGT) (human (endogenous in HCC cells)) (UniProt O15294).
T1 sequence: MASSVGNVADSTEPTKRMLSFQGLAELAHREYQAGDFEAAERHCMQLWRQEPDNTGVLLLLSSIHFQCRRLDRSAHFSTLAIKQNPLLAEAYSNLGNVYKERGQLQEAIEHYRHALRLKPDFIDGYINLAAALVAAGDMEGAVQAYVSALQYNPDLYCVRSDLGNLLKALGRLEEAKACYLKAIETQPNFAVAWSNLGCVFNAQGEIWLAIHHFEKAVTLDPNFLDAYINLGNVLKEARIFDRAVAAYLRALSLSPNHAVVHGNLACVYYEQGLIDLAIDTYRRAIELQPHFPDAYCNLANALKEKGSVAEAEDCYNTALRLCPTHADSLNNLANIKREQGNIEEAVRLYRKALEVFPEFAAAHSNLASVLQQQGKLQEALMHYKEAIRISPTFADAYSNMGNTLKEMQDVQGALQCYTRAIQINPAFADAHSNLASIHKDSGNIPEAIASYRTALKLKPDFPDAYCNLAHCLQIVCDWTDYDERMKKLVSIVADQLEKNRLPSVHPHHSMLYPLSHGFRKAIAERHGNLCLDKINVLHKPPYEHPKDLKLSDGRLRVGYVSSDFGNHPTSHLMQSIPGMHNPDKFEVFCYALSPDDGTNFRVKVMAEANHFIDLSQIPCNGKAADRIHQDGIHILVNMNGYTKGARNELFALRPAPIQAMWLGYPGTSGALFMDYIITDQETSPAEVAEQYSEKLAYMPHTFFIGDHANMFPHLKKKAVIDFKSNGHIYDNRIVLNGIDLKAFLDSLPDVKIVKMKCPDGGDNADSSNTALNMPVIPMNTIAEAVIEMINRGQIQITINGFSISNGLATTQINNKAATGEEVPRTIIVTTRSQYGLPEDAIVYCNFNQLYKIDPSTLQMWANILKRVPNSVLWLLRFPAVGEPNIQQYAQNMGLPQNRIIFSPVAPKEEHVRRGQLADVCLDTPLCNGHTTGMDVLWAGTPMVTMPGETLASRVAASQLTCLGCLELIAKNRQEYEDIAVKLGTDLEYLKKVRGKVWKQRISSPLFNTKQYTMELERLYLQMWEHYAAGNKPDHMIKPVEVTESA
Put plainly: co-IP; endogenous proteins in HCC cell lysate (IP lysis buffer, sonicated); IP with anti-OGT, blot anti-SIX1, and the reverse (IP anti-SIX1, blot anti-OGT); magnetic beads, 4 °C overnight, PBS washes.

Results are given in words; binding and its absence hold for the method and conditions named. Binding seen in cells or lysates may run through a third protein. Some binding calls cover weakened binding; strength is not graded here.

B1: Sine oculis homeobox homolog 1 (SIX1) (protein, UniProt Q15475 1-284)
chain: MSMLPSFGFTQEQVACVCEVLQQGGNLERLGRFLWSLPACDHLHKNESVLKAKAVVAFHRGNFRELYKILESHQFSPHNHPKLQQLWLKAHYVEAEKLRGRPLGAVGKYRVRRKFPLPRTIWDGEETSYCFKEKSRGVLREWYAHNPYPSPREKRELAEATGLTTTQVSNWFKNRRQRDRAAEAKERENTENNNSSSNKQNQLSPLEGGKPLMSSSEEEFSPPQSPDQNSVLLLQGNMGHARSSNYSLPGLTASQPSHGLQTHQHQLQDSLLGPLTSSLVDLGS
Take B1: the binding entry is reported as “binds”.
